These results are taken from PubChem BioAssay (NCATS).

The list shows a part of the results. These are further read-outs of the screen, such as a control signal, another cell line or another target. No call is given for them. Most of these compounds were active or inconclusive in the main read-out, so they are no random draw. Potencies come from curve fits of mixed quality, noted in brackets.

A short description of this assay: S16 Schwann cell PMP22 intronic element beta-lactamase assay (AID 624044). As to conditions: S16 rat Schwann cells, PMP22 element beta-lactamase FRET, 24 h; measured here: 460 nm blue channel. The method in brief: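 Beta-lactamase reporter under a PMP22 intronic regulatory element in stable S16 rat Schwann cells; 24 h compound exposure. 460 nm blue signal normalized between DMSO (0%) and potassium clavulanate, with 535 nm FRET tracking viability; curves classed by r2 and response.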
Take `O=c1ccc2cc(O[C@H]3O[C@@H](CO)[C@@H](O)[C@@H](O)[C@@H]3O)c(O)cc2o1`: the AC50 is 5.35 µM [rising, partial curve]. Take `CC(C)c1c(CN(C)[C@@H](C)Cc2ccccc2)n(C)n(-c2ccccc2)c1=O`: the AC50 was 0.00848 µM [falling, full curve].

Consider `CO[C@@H](COC(N)=O)C1=C(N2CC2)C(=O)C(C)=C(N2CC2)C1=O`, for which the AC50 was 2.82 µM [falling, full curve]. Then `O=C(NC(=O)c1c(F)cccc1F)Nc1cc(Cl)c(OC(F)(F)C(F)C(F)(F)F)cc1Cl` (stereo not given), with 0.282 µM [falling, full curve, poor fit]; and `CC(C)n1c(/C=C/[C@H](O)C[C@H](O)CC(=O)O)c(-c2ccc(F)cc2)c2ccccc21`, with 12.6 µM [falling, partial curve]; and `CN(C)C(=S)SC(=S)N(C)C`, with 3.16 µM [falling, full curve, poor fit]. Then `O=C1C=C2C=CC3C[C@@]2(O1)C1CCCCN31` (stereo not given in full), with 25.1 µM [falling, single point]. Then `COc1cccc2c1C(=O)c1c(O)c3c(c(O)c1C2=O)C[C@@](O)(C(=O)CO)C[C@@H]3O[C@H]1C[C@H](N)[C@H](OC2CCCCO2)[C@H](C)O1` (stereo not given in full), with 1.99 µM [falling, full curve]. In the case of `Nc1nc(N)nc(NC2CC2)n1`, the AC50 was 8.91 µM [falling, single point].

For `CCCCCCCCCC[N+](C)(C)CCCCCCCCCC`, the AC50 was 22.4 µM [falling, partial curve]. Consider `CN1CCc2cc(Cl)c(O)cc2[C@H]2c3ccccc3CC[C@@H]21`, for which the AC50 was 1.41 µM [falling, full curve, poor fit]. On to `CC[C@H]1CN2CCc3cc(OC)c(OC)cc3[C@H]2C[C@@H]1C[C@@H]1NCCc2cc(OC)c(OC)cc21`, for which the AC50 is 0.562 µM [falling, full curve]. The same measure for `CCC/C=C/C=C/C(=O)OC1/C(=C/C(=O)OC)CC2CC(C(C)O)OC(=O)CC(O)CC3CC(OC(C)=O)C(C)(C)C(O)(CC4C/C(=C/C(=O)OC)CC(/C=C\C(C)(C)C1(O)O2)O4)O3` (stereo not given): 22.4 µM [falling, partial curve]. Then `Cc1ncc2n1-c1ccc(Cl)cc1C(c1ccccc1F)=NC2`, with 0.501 µM [falling, full curve, poor fit]; and `OCCOc1ccccc1`, with 0.0446 µM [falling, full curve, poor fit]. Then `C[N+](C)(C)CC(=O)[O-]`, with 0.00355 µM [falling, full curve, poor fit].

As for `CCS(=O)(=O)C(C)(C)S(=O)(=O)CC`, the concentration at half-maximal activity (AC50) was 12.6 µM [falling, single point]. Then `CCC1(c2ccccc2)C(=O)NC(=O)N(C)C1=O` (stereo not given), with 25.1 µM [rising, single point]; and `CCCSc1ccc2nc(NC(=O)OC)[nH]c2c1`, with 1.2 µM [falling, full curve]. The same measure for `NC(=O)CS(=O)C(c1ccccc1)c1ccccc1` (stereo not given): 25.1 µM [falling, single point]; for `C[C@]12CCC3C(CCC4=C(Cl)C(=O)CC[C@@]43C)C1CCC2O` (stereo not given in full): 7.94 µM [falling, partial curve, poor fit]; for `Oc1cccc[c]1[Hg][Cl]`: 8.91 µM [falling, full curve]. For the compound `CCOC(=O)NC(O)C(Cl)(Cl)Cl` (stereo not given), the AC50 is 14.1 µM [falling, single point].

Regarding `CC(=O)OO`, the AC50 is 2.24 µM [falling, full curve, poor fit]. Then `CNC(=O)NC(O)C(Cl)(Cl)Cl` (stereo not given), with 12.6 µM [falling, single point]. As to `NC(C(=O)O)[C@@H]1CC(Cl)=NO1` (stereo not given in full), the AC50 is 19.9 µM [falling, partial curve]. The same measure for `C=C1Nc2ccccc2C(=O)N1c1ccccc1C`: 25.1 µM [falling, partial curve, poor fit]; for `COc1cc(-c2ccc(-[n+]3nc(-c4ccccc4)nn3-c3ccc([N+](=O)[O-])cc3)c(OC)c2)ccc1-[n+]1nc(-c2ccccc2)nn1-c1ccc([N+](=O)[O-])cc1`: 19.9 µM [falling, partial curve]. `NC(N)=NN=C(/C=C/c1ccc([N+](=O)[O-])o1)/C=C/c1ccc([N+](=O)[O-])o1`: the AC50 is 12.6 µM [falling, full curve]. As for `C[C@]12O[C@H](C[C@]1(O)CO)n1c3ccccc3c3c4c(c5c6ccccc6n2c5c31)CNC4=O`, the AC50 is 15.8 µM [falling, partial curve].

The term AC50 denotes the midpoint of the concentration-response curve, whichever way the signal moves.
